Construct, isoform or probe ends are uncertain for at least one entry. For some assays here: At least one verdict rests on a figure or table, not on a statement of the authors.
Legend:
[1] = tested on: MYC 1-163; test: fluorescence anisotropy; settings: residues 1-163
[2] = tested on: MYC 25-mer peptides around MYCBox IV (RBRIII); test: peptide microarray; settings: strongest of the four regions
[3] = tested on: MYC 25-mer peptides close to MYCBox II; test: peptide microarray
[4] = tested on: MYC 25-mer peptides of the basic region (BR); test: peptide microarray
[5] = tested on: MYC 25-mer peptides around MYCBox I; test: peptide microarray

Sequence | binding result [1] | binding result [2] | binding result [3] | binding result [4] | binding result [5]
GUGCAUGGGCAUGUGUGCUGUGUGUGUGCAGGCGACCGUAAACA [PTDSS2 RNA oligo] | binds | – | – | – | –
UGGGCCUGGAAUAGUGGGGGCCCAGGGGAAGCUGCGAUGUGCUUCUGAGUGUUUGGAACGAG [Cy5 RNA for peptide array] | – | binds | binds | binds | binds
